The values that follow come from the supplement of paper PMC9135407.

Where “and” joins values, the source holds several entries; their conditions need not be identical. Equal values may be shown once. Where a name gives a salt, the structure may show the parent alone. ± gives the standard deviation of the averaged measurements. Some of the results follow. Baselines shift from plate to plate; read single values as rough.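 Assay uses culture-activated primary human stellate myofibroblasts; lipid droplet recovery indicates inactivation. Measured: proportion of Hoechst-counted cells over a plate-specific Bodipy cutoff, duplicate wells, DMSO and nortriptyline as per-plate negative and positive controls. A hit scores, control-normalized, above the plate's top-tenth-percentile nortriptyline wells or ranks among its three best wells. Final well concentrations not reported.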

This assay relates to primary human hepatic stellate cells (donor 1). In words: percent Bodipy-positive cells; higher = more lipid droplet accumulation. To be noted: 48 h.
[1] abbreviates: library stock concentration: 1 mM.
Where [2] appears, read: library stock concentration: 10 mM.
Where [3] appears, read: library stock concentration: 3.33 mM.
The mark [4] stands for this setting: library stock concentration: 7.7 mM.
The mark [5] stands for this setting: library stock concentration: 400 uM.
The mark [6] stands for this setting: library stock concentration: 80 uM.
Setting [7] is: library stock concentration: 2 mM.

Consider `O=C(O)CCCCC1CCSS1` (racemic) [DL-.alpha.-Lipoic Acid], for which, under setting [1], the “percent Bodipy-positive cells” value was 9.37 ± 2.5%.
As for `NS(=O)(=O)c1cc2c(cc1Cl)NC(CC1CCCC1)NS2(=O)=O` (centres undefined) [Cyclopenthiazide], the “percent Bodipy-positive cells” value came out at 9.81 ± 1.4%.
Turning to `O=C(O)CCC/C=C\C[C@H]1C(=O)C[C@@H](O)[C@@H]1/C=C/[C@@H](O)COc1ccccc1` [16-phenoxy tetranor Prostaglandin E2], the “percent Bodipy-positive cells” value under setting [1] is 25.1 ± 1.4%.
Regarding `CC[N+](CC)(CC)CCOc1cccc(OCC[N+](CC)(CC)CC)c1OCC[N+](CC)(CC)CC` [Gallamine triethiodide], the “percent Bodipy-positive cells” value came out at 21 ± 1.9%. Moreover, the “percent Bodipy-positive cells” value under setting [2] was determined as 35.8 ± 5.9%.
Turning to `CC[N+](CC)(CC)CCOc1cccc(OCC[N+](CC)(CC)CC)c1OCC[N+](CC)(CC)CC` [Gallamine Triethiodide], the “percent Bodipy-positive cells” value runs as follows: under setting [3], 9.35 ± 5.4%; under setting [2], 21 ± 11%.
Consider `CCOC(=O)[N-]c1c[n+](N2CCOCC2)no1` [Molsidomine], for which the “percent Bodipy-positive cells” value is 31.4 ± 2%. For the same compound, under setting [1], the “percent Bodipy-positive cells” value was 18.1 ± 8.1%. The “percent Bodipy-positive cells” value (library stock concentration: 8.3 mM) was 11.2% and 23.4%. Also, under setting [2], the “percent Bodipy-positive cells” value is 18.5% and 21.8%.
Regarding `CCCNCC(O)COc1ccccc1C(=O)CCc1ccccc1.Cl` (centres undefined) [Propafenone hydrochloride], the “percent Bodipy-positive cells” value under setting [2] turned out to be 84.9 ± 1.9%.
In the case of `C=C(c1ccc(C(=O)O)cc1)c1cc2c(cc1C)C(C)(C)CCC2(C)C` [Bexarotene], the “percent Bodipy-positive cells” value turned out to be 11.5 ± 7.9% under setting [3], 10.2 ± 1.7% (library stock concentration: 5.7 mM) and 13.9 ± 4.3% under setting [2].
For the compound `CN(C)CCCCC(=O)Nc1ccc(NC(=S)NC(=O)c2ccc(C(C)(C)C)cc2)cc1` [Tenovin-6], the “percent Bodipy-positive cells” value under setting [1] came out at 41.5 ± 3.7% and the “percent Bodipy-positive cells” value under setting [2] worked out at 97.73 ± 0.67%.
For `CC(C(=O)O)c1ccc(C(=O)c2cccs2)cc1` (centres undefined) [Suprofen], the “percent Bodipy-positive cells” value worked out at 8.42 ± 4.6%. Moreover, under setting [3], the “percent Bodipy-positive cells” value is 10.3 ± 4.3%. Besides, the “percent Bodipy-positive cells” value under setting [4] was determined as 22.5 ± 0.34%. In addition, under setting [2], the “percent Bodipy-positive cells” value is 27.5% and 33.8%.
For the compound `COc1cc2ncnc(Nc3ccc(F)c(Cl)c3)c2cc1OCCCN1CCOCC1` [Gefitinib (ZD1839)], the “percent Bodipy-positive cells” value under setting [3] was 38.3 ± 0.47%.
On to `COc1cc2ncnc(Nc3ccc(F)c(Cl)c3)c2cc1OCCCN1CCOCC1` [Gefitinib], for which the “percent Bodipy-positive cells” value (library stock concentration: 4.5 mM) was 35.9 ± 11%.
In the case of `COc1cc2ncnc(Nc3ccc(F)c(Cl)c3)c2cc1OCCCN1CCOCC1` [Gefitinib (ZD1839, Iressa) (0.4 mM)], the “percent Bodipy-positive cells” value under setting [5] came out at 38.3 ± 5.4%.
`COc1cc2ncnc(Nc3ccc(F)c(Cl)c3)c2cc1OCCCN1CCOCC1`: the “percent Bodipy-positive cells” value runs as follows: under setting [6], 18.4 ± 3.9%; under setting [5], 29.1 ± 22%; under setting [7], 35.3 ± 6.6%; under setting [2], 74.3 ± 12%.
Take `CN1CCN(c2nc(C3=C(c4c[nH]c5ccccc45)C(=O)NC3=O)c3ccccc3n2)CC1` [Sotrastaurin]: the “percent Bodipy-positive cells” value came out at 9.13 ± 0.95% under setting [6], 17 ± 7.2% under setting [5], 7.19 ± 2.2% under setting [7] and 5.61 ± 0.17% under setting [3].
For `O=C1C(=Cc2ccc(O)cc2)C2=Nc3ccccc3C2=C1C1=C2C(=Nc3ccccc32)C(=Cc2ccc(O)cc2)C1=O` [Scytonemin, Lyngbya sp.], the “percent Bodipy-positive cells” value under setting [3] came to 20.5 ± 2.8%.
In the case of `CN1CCC[C@@H]1CCO[C@](C)(c1ccccc1)c1ccc(Cl)cc1` [Clemastine fumarate], the “percent Bodipy-positive cells” value was 64.8 ± 0.86%.
Turning to `CN1CCC[C@@H]1CCO[C@](C)(c1ccccc1)c1ccc(Cl)cc1` [Clemastine], the “percent Bodipy-positive cells” value under setting [2] is 43.4 ± 0.71%.
Regarding `CN1CCC[C@@H]1CCO[C@](C)(c1ccccc1)c1ccc(Cl)cc1` [Clemastine Fumarate], the “percent Bodipy-positive cells” value is 42.1 ± 12% under setting [3] and 91.01 ± 0.68% under setting [2].
With `CCOc1ccc(NC(C)=O)cc1` [Phenacetin], the “percent Bodipy-positive cells” value is 56.7 ± 7.8%. For the same compound, the “percent Bodipy-positive cells” value under setting [3] was determined as 10.2 ± 4%. The “percent Bodipy-positive cells” value under setting [2] was 15.6% and 21.4%.
For `O=C(c1ccc(OCCCc2c[nH]cn2)cc1)C1CC1` [Ciproxifan], the “percent Bodipy-positive cells” value runs as follows: under setting [3], 15.1 ± 2.7%; under setting [2], 54.2 ± 21%.
Consider `O=C(c1ccc(OCCCc2c[nH]cn2)cc1)C1CC1` [Ciproxifan hydrochloride], for which the “percent Bodipy-positive cells” value under setting [2] is 78.5 ± 17%.
For `C=C1C[C@@H](O)[C@H](/C=C/[C@@H](O)CCCCC)[C@H]1C/C=C\CCCC(=O)O` [9-deoxy-9-methylene Prostaglandin E2], the “percent Bodipy-positive cells” value under setting [1] worked out at 24.9 ± 9.4%.
In the case of `CC(C)[C@H](N)C(=O)OCC(CO)OCn1cnc2c(=O)[nH]c(N)nc21` (some centres undefined) [Valganciclovir HCl], the “percent Bodipy-positive cells” value runs as follows: under setting [3], 12.5 ± 6.1%; under setting [2], 24.5 ± 4.3%.
In the case of `CCN1CCC[C@H]1CNC(=O)c1c(O)c(Cl)cc(Cl)c1OC` [Raclopride], the “percent Bodipy-positive cells” value under setting [2] was 13.7% and 9.03%.
On the same count and under the same terms, the result for `CCN1CCC[C@H]1CNC(=O)c1c(O)c(Cl)cc(Cl)c1OC` [S(+)-Raclopride L-tartrate] reads 20.6 ± 4.7%.
`O=C(O)c1ccccc1` [Benzoic acid]: the “percent Bodipy-positive cells” value (library stock concentration: 16.4 mM) came to 26.2 ± 4.9%.
In the case of `O=C(O)c1ccccc1` [Benzoic Acid], the “percent Bodipy-positive cells” value under setting [3] is 9.36 ± 1.6% and the “percent Bodipy-positive cells” value under setting [2] came out at 43.9 ± 12%.
Regarding `CN(CC[C@@H](Oc1ccc(C(F)(F)F)cc1)c1ccccc1)CC(=O)[O-].[Li+]`, the “percent Bodipy-positive cells” value under setting [2] was 57.3 ± 11%.
As for `CC[C@@H]([C@H](C)O)n1ncn(-c2ccc(N3CCN(c4ccc(OC[C@@H]5CO[C@@](Cn6cncn6)(c6ccc(F)cc6F)C5)cc4)CC3)cc2)c1=O` [Posaconazole], the “percent Bodipy-positive cells” value under setting [3] was 24.8 ± 10%.
For `CCCCC[C@H](O)/C=C/[C@H]1[C@H](O)CC(=O)[C@@H]1CCCCCCC(=O)O` [Alprostadil], the “percent Bodipy-positive cells” value is 10.7 ± 1.9%. Besides, the “percent Bodipy-positive cells” value under setting [3] amounted to 16.1 ± 0.84%. In addition, under setting [2], the “percent Bodipy-positive cells” value is 14.3% and 8.52%.
In the case of `CCCCC[C@H](O)/C=C/[C@H]1[C@H](O)CC(=O)[C@@H]1CCCCCCC(=O)O` [Prostaglandin E1], the “percent Bodipy-positive cells” value runs as follows: under setting [1], 15.37 ± 0.052%; under setting [2], 9.28 ± 4.2%.
Take `CCCCC[C@H](O)/C=C/[C@H]1[C@H](O)CC(=O)[C@@H]1CCCCCCC(=O)O` [Prostaglandin  E1]: the “percent Bodipy-positive cells” value under setting [1] amounted to 10.1 ± 6.1%.
As for `COC(=O)[C@]12CCC(C)(C)C[C@H]1[C@H]1C(=O)C=C3[C@@]4(C)C=C(C#N)C(=O)C(C)(C)[C@@H]4CC[C@@]3(C)[C@]1(C)CC2` [Bardoxolone Methyl], the “percent Bodipy-positive cells” value under setting [3] came to 100% and the “percent Bodipy-positive cells” value under setting [2] turned out to be 100%.
On to `CC(=O)Nc1ccc(C(=O)O)cc1`, for which, under setting [2], the “percent Bodipy-positive cells” value is 36.8 ± 1.8%.
Still for that read-out and setting: the result for `O=C(O)c1cccnc1C(=O)O` [Quinolinic acid] reads 16.8% and 18.2% and 6.08%.
For `Cc1nc2c([nH]1)c(=O)n(C)c(=O)n2Cc1ccco1` [Furafylline], the “percent Bodipy-positive cells” value under setting [4] amounted to 8.85 ± 3.8% and the “percent Bodipy-positive cells” value under setting [2] came to 43.6 ± 18%.
For the compound `C[N+](C)(CCOc1ccccc1)Cc1ccccc1.O=C([O-])c1cc2ccccc2cc1O` [Bephenium hydroxynaphthoate], the “percent Bodipy-positive cells” value worked out at 9.62 ± 1.9%.
With `c1cc(OCCN2CCCCC2)cc(-c2n[nH]c3ccc(-c4nnc[nH]4)cc23)c1`, the “percent Bodipy-positive cells” value reads like this: under setting [6], 10.4 ± 3.1%; under setting [5], 8.55% and 15.6%.
`CC(NCCc1ccc(O)cc1)C(O)c1ccc(O)cc1` (centres undefined) [Ritodrine hydrochloride]: the “percent Bodipy-positive cells” value is 37.4 ± 9.1%. Also, where the note is “library stock concentration: 6.2 mM”, the “percent Bodipy-positive cells” value worked out at 20.7 ± 1.1%. In addition, the “percent Bodipy-positive cells” value under setting [2] is 14.5% and 24.2%.
As to `CC(NCCc1ccc(O)cc1)C(O)c1ccc(O)cc1` (centres undefined) [Ritodrine HCl], the “percent Bodipy-positive cells” value reads like this: under setting [3], 6.62 ± 2.5%; under setting [2], 12.8 ± 1%.
With `CCC(C)C1OC2(CCC1C)CC1CC(CC=C(C)C(OC3CC(OC)C(OC4CC(OC)C(O)C(C)O4)C(C)O3)C(C)C=CC=C3COC4C(O)C(C)=CC(C(=O)O1)C34O)O2` (centres undefined) [Ivermectin], the “percent Bodipy-positive cells” value reads like this: under setting [3], 7.05 ± 0.69%; under setting [2], 85.2 ± 1%.
With `CCC1(C)CC(=O)NC1=O` (centres undefined) [Ethosuximide], the “percent Bodipy-positive cells” value was found to be 28.6 ± 7.3%. The “percent Bodipy-positive cells” value (library stock concentration: 14.2 mM) was determined as 16 ± 1.8%.
Take `CC(=O)Nc1ccc(OC(C)=O)cc1`: the “percent Bodipy-positive cells” value under setting [2] came out at 27 ± 2.2%.
Same read-out and setting: as for `NC1CCN(c2c(F)cc3c(=O)c(C(=O)O)cn(C4CC4)c3c2Cl)C1` (centres undefined), the figure is 30.3 ± 4.9%.
